PubChem BioAssay AID328 (DTP/NCI, 2004)
The list does not hold the whole screen: it is rich in T/C values a quarter to a half above the control, in often repeated tests (any T/C) and in doses without a T/C. Other doses and runs of a compound stand elsewhere. T/C: endpoint of the treated group in % of that of the vehicle group. Some doses have a count of surviving animals in place of a T/C: the source holds a T/C of zero for them, seemingly a mark for toxic or unscored doses. Some doses without a T/C left all or most animals alive at the check, yet need not have been tolerated: survival well below the control is almost never listed, so the zero probably covers shortened survival too. Counts of survivors are from the toxicity check (mostly the fifth day) where no day follows; animals may have died later. Schedules are NCI's codes, taken here to give the interval after Q, in days (D) or hours (H), and the number of doses after X. Where survival is the endpoint, the PubChem record calls one and a half times the control and up active, and a quarter to a half above the control has no call in these data; cut-offs in other NCI protocols can differ. Some T/C values are followed by the survivors on the day toxicity was checked, most often the fifth; where none is given, no animal had died by that day.

System: BDF1 mice, P388 leukemia ip, median survival T/C
Assay: NCI In Vivo Anticancer Drug Screen. Data for tumor model P388 Leukemia (intraperitoneal) in B6D2F1 (BDF1) mice
Conditions: T/C endpoint: median survival time, higher T/C = longer survival
In short: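 Each value expresses how treatment altered survival: treated-mouse outcome over vehicle-mouse outcome, both groups bearing the transplanted tumour.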

[1] = dose: 20.0 mg/kg/injection, schedule: Q01DX009 (ip), vehicle: Klucel (hydroxypropylcellulose) (HPC)
[2] = dose: 100.0 mg/kg/injection, schedule: Q04DX003 (ip), vehicle: Klucel (hydroxypropylcellulose) (HPC)
[3] = dose: 400.0 mg/kg/injection, schedule: Q04DX003 (ip), vehicle: Klucel (hydroxypropylcellulose) (HPC)

C[C@]12CCC(=O)C=C1CC[C@H]1[C@@H]3CC[C@](O)(C(=O)CO)[C@@]3(C)C[C@H](O)[C@@]12F
survivor count (dose: 200.0 mg/kg/injection, schedule: Q01DX009 (ip), vehicle: Klucel (hydroxypropylcellulose) (HPC)): 5 of 6
survivor count (dose: 400.0 mg/kg/injection, schedule: Q01DX009 (ip), vehicle: Klucel (hydroxypropylcellulose) (HPC)): 6 of 6

Cc1ccc(S(=O)(=O)N/N=C/c2ccncc2)cc1
T/C (dose: 100.0 mg/kg/injection, schedule: Q01DX009 (ip), vehicle: other): 142 % of control [5 of 6 alive]

Cc1nc(N)c([N+](=O)[O-])cc1[N+](=O)[O-]
survivor count (dose: 200.0 mg/kg/injection, schedule: Q01DX001 (ip), vehicle: Klucel (hydroxypropylcellulose) (HPC)): 4 of 6
survivor count (dose: 400.0 mg/kg/injection, schedule: Q01DX001 (ip), vehicle: Klucel (hydroxypropylcellulose) (HPC)): 0 of 6

CCN(CCNc1ccc(C)c2sc3cc(Cl)ccc3c(=O)c12)CC(C)O (stereo unspecified)
survivor count (dose: 400.0 mg/kg/injection, schedule: Q01DX009 (ip), vehicle: saline): 3 of 6

Cc1c(C)c(O)c2c(c1O)C(=O)C=C(Cl)C2=O
survivor count (dose: 50.0 mg/kg/injection, schedule: Q04DX003 (ip), vehicle: saline with Tween-80): 0 of 6
survivor count (dose: 100.0 mg/kg/injection, schedule: Q04DX003 (ip), vehicle: saline with Tween-80): 2 of 6
survivor count (dose: 200.0 mg/kg/injection, schedule: Q04DX003 (ip), vehicle: saline with Tween-80): 0 of 6
survivor count (dose: 400.0 mg/kg/injection, schedule: Q04DX003 (ip), vehicle: saline with Tween-80): 0 of 6

Cc1c[n+]2c3ccccc3c3ccccc3c2s1
T/C (dose: 10.0 mg/kg/injection, schedule: Q01DX009 (ip), vehicle: Klucel (hydroxypropylcellulose) (HPC)): 131 % of control
T/C [1]: 136 % of control
survivor count [1]: 3 of 6
survivor count (dose: 40.0 mg/kg/injection, schedule: Q01DX009 (ip), vehicle: Klucel (hydroxypropylcellulose) (HPC)): 0 of 6
survivor count (dose: 40.0 mg/kg/injection, schedule: Q04DX003 (ip), vehicle: Klucel (hydroxypropylcellulose) (HPC)): 6 of 6
survivor count (dose: 80.0 mg/kg/injection, schedule: Q01DX009 (ip), vehicle: Klucel (hydroxypropylcellulose) (HPC)): 0 of 6
survivor count [2]: 1 of 6
survivor count [3]: 0 of 6

CCOc1ccccc1NC1=C(OC)C(=O)C(Nc2ccccc2OCC)=C(OC)C1=O
survivor count [2]: 6 of 6
survivor count [3]: 2 of 6

COc1cc(C=Nc2cc(Cl)c(Cl)c(Cl)c2)ccc1N(CCCl)CCCl
survivor count (dose: 50.0 mg/kg/injection, schedule: Q01DX009 (ip), vehicle: Klucel (hydroxypropylcellulose) (HPC)): 6 of 6
survivor count (dose: 100.0 mg/kg/injection, schedule: Q01DX009 (ip), vehicle: Klucel (hydroxypropylcellulose) (HPC)): 6 of 6
survivor count (dose: 150.0 mg/kg/injection, schedule: Q04DX003 (ip), vehicle: Klucel (hydroxypropylcellulose) (HPC)): 6 of 6
survivor count (dose: 200.0 mg/kg/injection, schedule: Q04DX003 (ip), vehicle: Klucel (hydroxypropylcellulose) (HPC)): 6 of 6
survivor count [3]: 5 of 6

C=CC(COC(C)=O)N1CC1 (stereo unspecified)
T/C (dose: 12.0 mg/kg/injection, schedule: Q01DX009 (ip), vehicle: saline): 130 % of control
T/C (dose: 17.0 mg/kg/injection, schedule: Q01DX009 (ip), vehicle: saline): 145 % of control
survivor count (dose: 50.0 mg/kg/injection, schedule: Q04DX003 (ip), vehicle: saline): 6 of 6
survivor count (dose: 100.0 mg/kg/injection, schedule: Q04DX003 (ip), vehicle: saline): 2 of 6
survivor count (dose: 200.0 mg/kg/injection, schedule: Q04DX003 (ip), vehicle: saline): 0 of 6
survivor count (dose: 400.0 mg/kg/injection, schedule: Q04DX003 (ip), vehicle: saline): 0 of 6
